Reference: patent US20240317858A1
These are yes or no findings as the source states them, for the method shown. Some results given as binding are weak or reduced against the parent protein; the word gives no strength.

The chains behind the UniProt entries cited, without tags or fusion partners. Residues count along the entry.
UniProt Q95LI5, residues 22-198: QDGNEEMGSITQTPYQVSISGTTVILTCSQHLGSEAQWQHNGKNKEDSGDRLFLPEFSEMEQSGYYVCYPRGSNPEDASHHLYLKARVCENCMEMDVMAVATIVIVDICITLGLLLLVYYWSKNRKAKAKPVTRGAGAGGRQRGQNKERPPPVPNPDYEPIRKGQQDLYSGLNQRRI
UniProt P07766, residues 23-207: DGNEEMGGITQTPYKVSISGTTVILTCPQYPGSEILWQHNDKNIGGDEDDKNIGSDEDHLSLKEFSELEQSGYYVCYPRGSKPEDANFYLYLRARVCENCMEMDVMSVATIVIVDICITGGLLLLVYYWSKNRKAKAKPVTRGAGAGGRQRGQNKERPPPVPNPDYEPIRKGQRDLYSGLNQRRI

Experiments:
[1] = molecular target: Cynomolgus CD3 on HSC-F cells (cynomolgus) (UniProt Q95LI5); experiment: flow cytometry, Fab titration
[2] = molecular target: Human CD3 on CD3+ Jurkat cells (human) (UniProt P07766); experiment: flow cytometry, Fab titration

binding [1]: binds
binding [2]: binds
B1: Antibody No. V013 (ADI-70330) Fab (Fab, V domains shown)
VH: QVQLVQSGAEVKKPGASVKVSCKASGFNIDDYYMHWVRQAPGQRLEWIGWIDLENANTVDDAKFQGRVTITRDTSASTAYMELSSLRSEDTAVYYCARDAYGRYFYDVWGQGTLVTVSS
VL: DIVMSQSPDSLAVSLGERATINCKSSQSLLNARTGKNYLAWYQQKPGQPPKLLIYWASTRSSGVPDRFSGSGSGTDFTLTISSLQAEDVAVYYCVQSYFRRTFGGGTKVEIK
